For orientation: IC50 means the midpoint of a concentration-inhibition curve.

One compound from paper PMC7735645 (Journal of the American Chemical Society, 2019) can be followed below.

For the experiment, the system named is A549 cells. Put plainly: 24 h IC50. Type of experiment: cell-based. The settings on record: read-out: 24 h IC50 value, Table S1.

Take `N.N.[Cl][Pt][Cl]` [compound 1, cisplatin, reference compound]: the IC50 is 12.8 µM.
